The list shows a part of the results. The data scatter; read single values as rough.
target: T1, NUP205 C1855 (UniProt Q92621); assay: log2 mean competition ratio of IA-DTB cysteine labelling (DMSO/compound) (log2 ratio); higher = stronger cysteine engagement by compound; conditions: 50 µM; treatment time: 4 h; cell line lysate: HEK293T
T1 sequence (whole entry): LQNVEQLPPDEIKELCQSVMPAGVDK
Protocol: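 IA-DTB competitive cysteine chemoproteomics in HEK293T RIPA lysate. Lysates were treated with compound 29 or 30 at 50 or 200 µM for 4 h, then IA-DTB (500 µM, 1 h), trypsin-digested, NeutrAvidin-enriched and analysed by diaPASEF. Competition ratio = intensity DMSO / intensity compound (n=4 treated, n=64 DMSO); binding: mean log2 CR ≥ 1 and p ≤ 0.05 plus QC filters. Target is the cysteine site.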

The chains behind the UniProt entries cited, without tags or fusion partners. Where a name states a change or a piece, a line headed by the entry shows the natural chain unless it says otherwise.
UniProt Q92621: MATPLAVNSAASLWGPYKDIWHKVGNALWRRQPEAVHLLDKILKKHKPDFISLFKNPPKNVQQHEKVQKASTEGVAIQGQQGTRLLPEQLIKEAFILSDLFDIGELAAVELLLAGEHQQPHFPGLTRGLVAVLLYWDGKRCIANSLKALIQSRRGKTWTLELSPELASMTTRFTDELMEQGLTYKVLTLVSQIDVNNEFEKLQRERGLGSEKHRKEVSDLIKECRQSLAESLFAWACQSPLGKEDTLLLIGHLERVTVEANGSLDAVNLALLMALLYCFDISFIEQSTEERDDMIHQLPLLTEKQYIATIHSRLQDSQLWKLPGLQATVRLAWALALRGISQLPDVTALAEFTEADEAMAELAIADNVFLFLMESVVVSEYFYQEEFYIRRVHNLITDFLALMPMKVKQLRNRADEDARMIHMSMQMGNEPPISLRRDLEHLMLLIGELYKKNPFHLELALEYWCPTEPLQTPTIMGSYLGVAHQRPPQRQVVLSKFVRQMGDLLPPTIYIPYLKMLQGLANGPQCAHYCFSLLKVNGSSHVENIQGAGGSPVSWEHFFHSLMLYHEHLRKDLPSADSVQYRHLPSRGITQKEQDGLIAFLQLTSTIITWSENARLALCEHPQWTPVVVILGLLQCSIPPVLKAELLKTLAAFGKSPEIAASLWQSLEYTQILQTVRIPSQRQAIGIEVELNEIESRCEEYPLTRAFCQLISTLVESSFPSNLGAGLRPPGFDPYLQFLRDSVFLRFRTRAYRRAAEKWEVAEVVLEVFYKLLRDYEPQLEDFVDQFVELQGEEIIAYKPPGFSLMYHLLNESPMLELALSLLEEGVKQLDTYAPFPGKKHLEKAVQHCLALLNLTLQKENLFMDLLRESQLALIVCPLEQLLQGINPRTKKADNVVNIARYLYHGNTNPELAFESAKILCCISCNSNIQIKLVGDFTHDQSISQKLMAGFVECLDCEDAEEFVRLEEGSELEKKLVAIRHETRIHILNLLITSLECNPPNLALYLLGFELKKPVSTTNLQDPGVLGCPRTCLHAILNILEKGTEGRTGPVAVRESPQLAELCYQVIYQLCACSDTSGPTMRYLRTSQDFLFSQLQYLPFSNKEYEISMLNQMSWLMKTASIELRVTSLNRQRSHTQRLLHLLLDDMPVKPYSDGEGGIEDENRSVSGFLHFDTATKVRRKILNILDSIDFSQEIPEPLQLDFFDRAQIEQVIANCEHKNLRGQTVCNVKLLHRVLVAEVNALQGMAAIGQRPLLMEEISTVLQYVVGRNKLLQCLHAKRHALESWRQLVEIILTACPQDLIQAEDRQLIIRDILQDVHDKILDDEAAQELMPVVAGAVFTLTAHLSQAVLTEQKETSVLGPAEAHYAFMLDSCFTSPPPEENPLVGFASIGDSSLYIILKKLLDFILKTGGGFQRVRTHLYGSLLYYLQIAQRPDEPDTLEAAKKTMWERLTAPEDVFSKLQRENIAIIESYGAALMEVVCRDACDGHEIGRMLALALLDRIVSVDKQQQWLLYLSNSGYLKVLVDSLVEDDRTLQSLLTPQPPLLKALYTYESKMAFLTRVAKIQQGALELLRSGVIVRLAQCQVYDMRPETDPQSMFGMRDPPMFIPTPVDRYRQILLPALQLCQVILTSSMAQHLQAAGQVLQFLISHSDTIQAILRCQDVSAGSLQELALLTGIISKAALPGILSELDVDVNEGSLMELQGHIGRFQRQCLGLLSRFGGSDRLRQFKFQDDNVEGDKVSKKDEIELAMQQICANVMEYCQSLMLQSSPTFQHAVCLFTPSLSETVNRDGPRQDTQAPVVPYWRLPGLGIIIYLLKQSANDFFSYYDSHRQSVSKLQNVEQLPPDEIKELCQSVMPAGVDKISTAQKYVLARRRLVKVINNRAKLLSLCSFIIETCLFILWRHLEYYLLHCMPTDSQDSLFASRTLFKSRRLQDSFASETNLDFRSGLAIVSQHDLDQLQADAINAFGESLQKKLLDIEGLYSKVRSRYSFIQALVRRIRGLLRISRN

SMILES | log2 mean competition ratio
O=C(CCl)N[C@@H]1CCCc2ccccc21 | -0.274
O=C(CCl)N[C@H]1CCCc2ccccc21 | 0.21

same assay, conditions: 200 µM; treatment time: 4 h; cell line lysate: HEK293T

SMILES | log2 mean competition ratio
O=C(CCl)N[C@@H]1CCCc2ccccc21 | 0.0564
O=C(CCl)N[C@H]1CCCc2ccccc21 | -0.251
